{"source": "PubChem BioAssay AID1259308 (NCATS, 2017)", "screen": "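Genes whose loss raises luciferase production in HEK293 cells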 (primary screen)", "system": "human HEK293 embryonic kidney cells stably expressing firefly luciferase (HEK-CMV-Luc2-Hygro)", "reagent": "single siRNA against human genes, 0.8 pmol siRNA per well", "time to read-out": "72 h", "measurement": "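Luciferase light (ONE-Glo) measured on one replicate plate set and viability (CellTiter-Glo) on the other, scaled to a negative control siRNA, with robust z-scores and luciferase per cell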", "direction": "total luciferase, z-score and total luciferase, % of control: higher = more reporter protein produced", "rule for the call": "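An siRNA counts as active if its total luciferase robust z-score exceeds 3; genes with two or more such siRNAs out of three were retested with fresh siRNAs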", "meaning of the calls": "active = raised luciferase; inactive = no rise", "note": "Here is one part, drawn at random, of about 59,000 reagents tested. About 1,510 of all reagents (2.6%) count as active. 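Calls use total luciferase alone and ignore viability, so some active siRNAs may act by altering cell number.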 Reagents against one gene are numbered here. Not all columns of the deposit are shown."}
{"gene symbol":"SEC16A (SEC16 homolog A, endoplasmic reticulum export factor)","siRNA no.":1,"total luciferase, z-score":0.119,"total luciferase, % of control":84.3,"Call":"inactive"}
{"gene symbol":"SEC16A (SEC16 homolog A, endoplasmic reticulum export factor)","siRNA no.":2,"total luciferase, z-score":-0.229,"total luciferase, % of control":77.3,"Call":"inactive"}
{"gene symbol":"SEC16A (SEC16 homolog A, endoplasmic reticulum export factor)","siRNA no.":3,"total luciferase, z-score":0.787,"total luciferase, % of control":97.5,"Call":"inactive"}
{"gene symbol":"GBX2 (gastrulation brain homeobox 2)","siRNA no.":1,"total luciferase, z-score":0.525,"total luciferase, % of control":92.3,"Call":"inactive"}
{"gene symbol":"GBX2 (gastrulation brain homeobox 2)","siRNA no.":2,"total luciferase, z-score":-1.6,"total luciferase, % of control":50,"Call":"inactive"}
{"gene symbol":"GBX2 (gastrulation brain homeobox 2)","siRNA no.":3,"total luciferase, z-score":1.68,"total luciferase, % of control":115,"Call":"inactive"}
{"gene symbol":"MARS2 (methionyl-tRNA synthetase 2, mitochondrial)","siRNA no.":1,"total luciferase, z-score":-2.45,"total luciferase, % of control":33.3,"Call":"inactive"}
{"gene symbol":"MARS2 (methionyl-tRNA synthetase 2, mitochondrial)","siRNA no.":2,"total luciferase, z-score":-0.083,"total luciferase, % of control":80.2,"Call":"inactive"}
{"gene symbol":"MARS2 (methionyl-tRNA synthetase 2, mitochondrial)","siRNA no.":3,"total luciferase, z-score":0.704,"total luciferase, % of control":95.9,"Call":"inactive"}
{"gene symbol":"TAAR1 (trace amine associated receptor 1)","siRNA no.":1,"total luciferase, z-score":-0.597,"total luciferase, % of control":70,"Call":"inactive"}
{"gene symbol":"TAAR1 (trace amine associated receptor 1)","siRNA no.":2,"total luciferase, z-score":0.156,"total luciferase, % of control":85,"Call":"inactive"}
{"gene symbol":"TAAR1 (trace amine associated receptor 1)","siRNA no.":3,"total luciferase, z-score":-0.512,"total luciferase, % of control":71.7,"Call":"inactive"}
{"gene symbol":"ACSM3 (acyl-CoA synthetase medium chain family member 3)","siRNA no.":1,"total luciferase, z-score":-0.364,"total luciferase, % of control":74.6,"Call":"inactive"}
{"gene symbol":"ACSM3 (acyl-CoA synthetase medium chain family member 3)","siRNA no.":2,"total luciferase, z-score":-0.22,"total luciferase, % of control":77.5,"Call":"inactive"}
{"gene symbol":"ACSM3 (acyl-CoA synthetase medium chain family member 3)","siRNA no.":3,"total luciferase, z-score":-0.657,"total luciferase, % of control":68.8,"Call":"inactive"}
{"gene symbol":"HSPA6 (heat shock protein family A (Hsp70) member 6)","siRNA no.":1,"total luciferase, z-score":-0.343,"total luciferase, % of control":75.1,"Call":"inactive"}
{"gene symbol":"HSPA6 (heat shock protein family A (Hsp70) member 6)","siRNA no.":2,"total luciferase, z-score":-0.439,"total luciferase, % of control":73.1,"Call":"inactive"}
{"gene symbol":"HSPA6 (heat shock protein family A (Hsp70) member 6)","siRNA no.":3,"total luciferase, z-score":0.256,"total luciferase, % of control":87,"Call":"inactive"}
{"gene symbol":"GPSM1 (G protein signaling modulator 1)","siRNA no.":1,"total luciferase, z-score":0.873,"total luciferase, % of control":99.3,"Call":"inactive"}
{"gene symbol":"GPSM1 (G protein signaling modulator 1)","siRNA no.":2,"total luciferase, z-score":0.352,"total luciferase, % of control":88.9,"Call":"inactive"}
{"gene symbol":"GPSM1 (G protein signaling modulator 1)","siRNA no.":3,"total luciferase, z-score":2.53,"total luciferase, % of control":132,"Call":"inactive"}
{"gene symbol":"TMEM245 (transmembrane protein 245)","siRNA no.":1,"total luciferase, z-score":0.909,"total luciferase, % of control":100,"Call":"inactive"}
{"gene symbol":"TMEM245 (transmembrane protein 245)","siRNA no.":2,"total luciferase, z-score":-0.77,"total luciferase, % of control":66.6,"Call":"inactive"}
{"gene symbol":"TMEM245 (transmembrane protein 245)","siRNA no.":3,"total luciferase, z-score":0.675,"total luciferase, % of control":95.3,"Call":"inactive"}
{"gene symbol":"LYPLA1 (lysophospholipase 1)","siRNA no.":1,"total luciferase, z-score":-0.394,"total luciferase, % of control":74,"Call":"inactive"}
{"gene symbol":"LYPLA1 (lysophospholipase 1)","siRNA no.":2,"total luciferase, z-score":-1.17,"total luciferase, % of control":58.7,"Call":"inactive"}
{"gene symbol":"LYPLA1 (lysophospholipase 1)","siRNA no.":3,"total luciferase, z-score":0.368,"total luciferase, % of control":89.2,"Call":"inactive"}
{"gene symbol":"THTPA (thiamine triphosphatase)","siRNA no.":1,"total luciferase, z-score":0.723,"total luciferase, % of control":96.3,"Call":"inactive"}
{"gene symbol":"THTPA (thiamine triphosphatase)","siRNA no.":2,"total luciferase, z-score":-1.16,"total luciferase, % of control":58.9,"Call":"inactive"}
{"gene symbol":"THTPA (thiamine triphosphatase)","siRNA no.":3,"total luciferase, z-score":-0.948,"total luciferase, % of control":63,"Call":"inactive"}
{"gene symbol":"OR52L1 (olfactory receptor family 52 subfamily L member 1)","siRNA no.":1,"total luciferase, z-score":0.29,"total luciferase, % of control":87.7,"Call":"inactive"}
{"gene symbol":"OR52L1 (olfactory receptor family 52 subfamily L member 1)","siRNA no.":2,"total luciferase, z-score":-0.389,"total luciferase, % of control":74.2,"Call":"inactive"}
{"gene symbol":"OR52L1 (olfactory receptor family 52 subfamily L member 1)","siRNA no.":3,"total luciferase, z-score":2.59,"total luciferase, % of control":133,"Call":"inactive"}

5 consecutive reagents already listed, quoted:
{"gene symbol":"TAAR1 (trace amine associated receptor 1)","siRNA no.":3,"total luciferase, z-score":-0.512,"total luciferase, % of control":71.7,"Call":"inactive"}
{"gene symbol":"ACSM3 (acyl-CoA synthetase medium chain family member 3)","siRNA no.":1,"total luciferase, z-score":-0.364,"total luciferase, % of control":74.6,"Call":"inactive"}
{"gene symbol":"ACSM3 (acyl-CoA synthetase medium chain family member 3)","siRNA no.":2,"total luciferase, z-score":-0.22,"total luciferase, % of control":77.5,"Call":"inactive"}
{"gene symbol":"ACSM3 (acyl-CoA synthetase medium chain family member 3)","siRNA no.":3,"total luciferase, z-score":-0.657,"total luciferase, % of control":68.8,"Call":"inactive"}
{"gene symbol":"HSPA6 (heat shock protein family A (Hsp70) member 6)","siRNA no.":1,"total luciferase, z-score":-0.343,"total luciferase, % of control":75.1,"Call":"inactive"}
